Data as given in the supplement of paper PMC10849652.
The other results are listed elsewhere or left out.

Sequences of proteins named here, by UniProt entry; tags and fusion partners are left off. A change or cut given only in a name is not applied to a line headed by its entry.
UniProt P49848, whole entry, looked up: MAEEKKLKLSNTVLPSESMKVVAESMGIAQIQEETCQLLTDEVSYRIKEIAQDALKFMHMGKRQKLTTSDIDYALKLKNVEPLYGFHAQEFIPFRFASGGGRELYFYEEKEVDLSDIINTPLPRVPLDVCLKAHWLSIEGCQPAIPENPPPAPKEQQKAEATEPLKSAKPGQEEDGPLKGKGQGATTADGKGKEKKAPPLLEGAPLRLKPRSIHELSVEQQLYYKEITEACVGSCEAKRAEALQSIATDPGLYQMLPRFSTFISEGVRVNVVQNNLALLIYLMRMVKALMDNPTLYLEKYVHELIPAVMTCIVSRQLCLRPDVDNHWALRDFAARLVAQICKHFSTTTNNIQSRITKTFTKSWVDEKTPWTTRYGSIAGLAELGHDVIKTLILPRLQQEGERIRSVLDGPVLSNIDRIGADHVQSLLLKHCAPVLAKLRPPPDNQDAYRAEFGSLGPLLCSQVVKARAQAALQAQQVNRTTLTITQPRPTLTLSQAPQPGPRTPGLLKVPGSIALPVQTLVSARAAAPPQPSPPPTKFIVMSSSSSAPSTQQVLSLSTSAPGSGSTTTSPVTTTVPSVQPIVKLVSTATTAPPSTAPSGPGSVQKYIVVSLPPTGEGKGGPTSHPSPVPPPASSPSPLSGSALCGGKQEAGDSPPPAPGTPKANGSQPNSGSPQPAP
UniProt P55854, whole entry, looked up: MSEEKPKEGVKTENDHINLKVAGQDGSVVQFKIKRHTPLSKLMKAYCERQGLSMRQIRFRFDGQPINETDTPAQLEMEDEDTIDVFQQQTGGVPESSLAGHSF
UniProt Q16563: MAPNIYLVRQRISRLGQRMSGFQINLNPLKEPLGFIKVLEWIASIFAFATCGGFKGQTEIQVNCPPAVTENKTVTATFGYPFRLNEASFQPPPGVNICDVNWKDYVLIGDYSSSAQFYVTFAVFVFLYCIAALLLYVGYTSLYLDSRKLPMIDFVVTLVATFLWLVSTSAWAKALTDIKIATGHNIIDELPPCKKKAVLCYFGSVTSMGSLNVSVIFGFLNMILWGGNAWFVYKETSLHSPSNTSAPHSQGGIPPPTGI
UniProt Q15526: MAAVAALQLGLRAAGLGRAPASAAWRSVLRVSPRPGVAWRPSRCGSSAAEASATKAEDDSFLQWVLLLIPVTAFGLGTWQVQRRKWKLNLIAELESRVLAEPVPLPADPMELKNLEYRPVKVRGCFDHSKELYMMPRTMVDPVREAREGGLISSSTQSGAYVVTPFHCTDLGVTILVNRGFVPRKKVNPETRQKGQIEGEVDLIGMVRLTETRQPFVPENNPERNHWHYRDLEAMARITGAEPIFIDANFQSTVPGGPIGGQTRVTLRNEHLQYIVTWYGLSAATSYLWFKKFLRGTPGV
UniProt Q15022: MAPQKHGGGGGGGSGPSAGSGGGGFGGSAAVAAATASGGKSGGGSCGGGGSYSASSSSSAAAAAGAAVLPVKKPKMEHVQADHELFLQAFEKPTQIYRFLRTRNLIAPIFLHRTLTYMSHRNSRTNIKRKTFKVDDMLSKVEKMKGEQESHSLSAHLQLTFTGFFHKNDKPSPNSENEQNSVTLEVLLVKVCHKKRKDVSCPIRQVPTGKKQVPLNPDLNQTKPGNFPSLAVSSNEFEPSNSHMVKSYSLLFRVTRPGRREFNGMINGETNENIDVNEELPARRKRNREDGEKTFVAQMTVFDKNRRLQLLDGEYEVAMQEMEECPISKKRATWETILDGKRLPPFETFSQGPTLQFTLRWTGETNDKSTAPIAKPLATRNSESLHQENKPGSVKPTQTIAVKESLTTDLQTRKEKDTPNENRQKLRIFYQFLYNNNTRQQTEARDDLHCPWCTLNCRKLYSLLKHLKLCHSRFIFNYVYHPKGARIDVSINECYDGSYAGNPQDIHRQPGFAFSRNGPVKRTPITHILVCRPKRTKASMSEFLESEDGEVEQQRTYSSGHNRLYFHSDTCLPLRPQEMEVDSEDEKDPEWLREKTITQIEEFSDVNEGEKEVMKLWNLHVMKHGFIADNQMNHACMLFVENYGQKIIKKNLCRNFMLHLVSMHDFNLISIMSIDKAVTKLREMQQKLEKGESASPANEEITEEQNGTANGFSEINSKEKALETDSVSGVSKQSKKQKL
UniProt Q15750: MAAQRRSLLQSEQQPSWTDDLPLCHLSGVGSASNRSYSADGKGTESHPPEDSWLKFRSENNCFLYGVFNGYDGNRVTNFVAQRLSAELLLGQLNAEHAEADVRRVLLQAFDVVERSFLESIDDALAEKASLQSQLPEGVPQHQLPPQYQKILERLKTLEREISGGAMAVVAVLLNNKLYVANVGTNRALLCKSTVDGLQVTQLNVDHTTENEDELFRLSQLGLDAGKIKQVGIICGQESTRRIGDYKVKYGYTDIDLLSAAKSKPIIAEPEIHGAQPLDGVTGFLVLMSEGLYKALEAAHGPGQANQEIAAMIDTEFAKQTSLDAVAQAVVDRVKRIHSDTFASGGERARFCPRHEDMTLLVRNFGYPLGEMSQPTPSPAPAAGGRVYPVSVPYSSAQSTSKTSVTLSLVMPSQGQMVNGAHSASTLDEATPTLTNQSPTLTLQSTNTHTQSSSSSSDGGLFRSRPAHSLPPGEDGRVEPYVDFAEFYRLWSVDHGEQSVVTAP
UniProt Q9UMZ2: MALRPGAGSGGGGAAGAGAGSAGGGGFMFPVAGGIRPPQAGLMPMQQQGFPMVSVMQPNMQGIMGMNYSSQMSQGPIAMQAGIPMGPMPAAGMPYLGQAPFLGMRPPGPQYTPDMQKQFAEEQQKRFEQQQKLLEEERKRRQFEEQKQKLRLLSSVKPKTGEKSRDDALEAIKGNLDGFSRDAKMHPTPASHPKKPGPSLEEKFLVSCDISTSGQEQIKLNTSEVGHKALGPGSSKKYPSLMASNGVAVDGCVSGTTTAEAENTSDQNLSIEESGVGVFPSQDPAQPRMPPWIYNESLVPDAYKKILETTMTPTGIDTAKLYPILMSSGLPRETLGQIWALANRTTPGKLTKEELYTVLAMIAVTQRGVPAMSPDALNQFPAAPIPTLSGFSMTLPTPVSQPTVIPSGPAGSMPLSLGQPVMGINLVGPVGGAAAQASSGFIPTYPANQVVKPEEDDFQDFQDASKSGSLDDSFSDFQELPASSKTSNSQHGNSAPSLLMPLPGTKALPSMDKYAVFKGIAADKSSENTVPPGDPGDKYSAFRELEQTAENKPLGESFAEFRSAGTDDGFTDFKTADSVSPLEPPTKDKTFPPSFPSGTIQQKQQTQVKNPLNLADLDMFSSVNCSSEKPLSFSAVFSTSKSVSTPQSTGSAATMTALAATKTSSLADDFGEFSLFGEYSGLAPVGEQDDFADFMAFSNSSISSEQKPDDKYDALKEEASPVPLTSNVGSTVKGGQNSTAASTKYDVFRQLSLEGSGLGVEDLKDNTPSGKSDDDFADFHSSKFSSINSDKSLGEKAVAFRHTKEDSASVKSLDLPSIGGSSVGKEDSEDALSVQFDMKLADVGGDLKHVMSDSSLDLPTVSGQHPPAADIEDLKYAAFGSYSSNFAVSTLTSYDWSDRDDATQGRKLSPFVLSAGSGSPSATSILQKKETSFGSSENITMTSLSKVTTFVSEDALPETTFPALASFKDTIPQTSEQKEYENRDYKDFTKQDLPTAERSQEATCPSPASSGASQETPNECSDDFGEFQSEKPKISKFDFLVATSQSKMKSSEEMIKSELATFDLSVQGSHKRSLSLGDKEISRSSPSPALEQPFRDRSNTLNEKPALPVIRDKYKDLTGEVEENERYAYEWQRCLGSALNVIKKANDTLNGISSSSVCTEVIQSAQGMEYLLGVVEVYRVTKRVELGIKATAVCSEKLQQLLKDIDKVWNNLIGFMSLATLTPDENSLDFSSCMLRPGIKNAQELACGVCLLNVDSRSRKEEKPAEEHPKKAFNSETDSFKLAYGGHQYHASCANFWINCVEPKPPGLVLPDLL
UniProt Q6ZWJ1: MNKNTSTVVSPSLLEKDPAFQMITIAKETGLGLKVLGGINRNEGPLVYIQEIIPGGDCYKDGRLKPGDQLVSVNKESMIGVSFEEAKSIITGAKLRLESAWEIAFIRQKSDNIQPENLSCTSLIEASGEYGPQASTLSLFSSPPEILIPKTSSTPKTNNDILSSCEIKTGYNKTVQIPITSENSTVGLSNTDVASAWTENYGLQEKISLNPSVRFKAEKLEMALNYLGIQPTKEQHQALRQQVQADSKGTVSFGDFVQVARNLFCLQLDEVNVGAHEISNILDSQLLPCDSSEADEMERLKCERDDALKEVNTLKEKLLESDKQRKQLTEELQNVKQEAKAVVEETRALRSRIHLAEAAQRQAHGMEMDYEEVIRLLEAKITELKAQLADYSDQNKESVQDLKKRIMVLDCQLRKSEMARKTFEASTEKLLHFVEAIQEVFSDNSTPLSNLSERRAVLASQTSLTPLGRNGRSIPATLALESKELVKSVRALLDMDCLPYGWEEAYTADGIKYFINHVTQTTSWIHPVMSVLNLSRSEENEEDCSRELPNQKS
UniProt Q15542, whole entry, looked up: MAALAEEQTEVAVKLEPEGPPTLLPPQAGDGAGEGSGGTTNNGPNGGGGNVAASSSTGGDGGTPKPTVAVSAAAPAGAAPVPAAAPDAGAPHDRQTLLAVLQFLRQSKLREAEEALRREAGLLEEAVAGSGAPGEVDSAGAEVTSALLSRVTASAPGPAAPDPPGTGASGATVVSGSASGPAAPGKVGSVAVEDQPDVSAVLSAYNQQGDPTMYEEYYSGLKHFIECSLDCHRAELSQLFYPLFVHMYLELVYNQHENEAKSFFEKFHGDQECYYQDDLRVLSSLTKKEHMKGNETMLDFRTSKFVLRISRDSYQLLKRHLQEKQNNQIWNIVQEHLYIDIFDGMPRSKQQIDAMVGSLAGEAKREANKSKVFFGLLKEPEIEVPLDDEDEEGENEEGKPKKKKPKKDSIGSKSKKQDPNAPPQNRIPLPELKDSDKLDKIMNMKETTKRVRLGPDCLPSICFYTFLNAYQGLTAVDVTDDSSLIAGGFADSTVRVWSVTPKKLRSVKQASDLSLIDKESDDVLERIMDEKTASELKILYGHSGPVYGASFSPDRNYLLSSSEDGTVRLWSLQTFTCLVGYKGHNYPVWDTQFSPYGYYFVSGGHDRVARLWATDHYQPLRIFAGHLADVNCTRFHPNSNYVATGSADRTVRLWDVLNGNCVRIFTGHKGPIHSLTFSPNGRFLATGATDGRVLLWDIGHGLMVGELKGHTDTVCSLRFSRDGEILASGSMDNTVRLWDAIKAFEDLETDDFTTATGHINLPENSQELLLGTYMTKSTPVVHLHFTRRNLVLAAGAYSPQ
UniProt O43752: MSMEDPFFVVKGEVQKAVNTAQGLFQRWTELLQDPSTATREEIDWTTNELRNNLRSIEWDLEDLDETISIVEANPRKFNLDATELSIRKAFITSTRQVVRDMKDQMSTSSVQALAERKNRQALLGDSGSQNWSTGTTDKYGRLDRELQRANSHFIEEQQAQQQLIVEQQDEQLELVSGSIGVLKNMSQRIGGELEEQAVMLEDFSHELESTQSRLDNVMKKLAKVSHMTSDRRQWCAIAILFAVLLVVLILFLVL
UniProt Q9HAC7: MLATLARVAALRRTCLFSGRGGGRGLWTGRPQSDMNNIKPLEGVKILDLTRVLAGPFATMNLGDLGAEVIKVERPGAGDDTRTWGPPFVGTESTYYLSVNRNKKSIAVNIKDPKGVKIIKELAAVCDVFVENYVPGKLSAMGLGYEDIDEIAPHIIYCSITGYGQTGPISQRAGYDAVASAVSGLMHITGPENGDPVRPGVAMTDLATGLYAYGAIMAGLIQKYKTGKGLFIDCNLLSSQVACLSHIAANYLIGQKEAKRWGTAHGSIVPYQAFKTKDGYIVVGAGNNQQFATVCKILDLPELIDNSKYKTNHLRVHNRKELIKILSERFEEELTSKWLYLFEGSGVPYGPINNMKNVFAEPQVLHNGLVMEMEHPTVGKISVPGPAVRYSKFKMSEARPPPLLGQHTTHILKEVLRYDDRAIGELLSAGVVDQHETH
UniProt Q15543, whole entry, looked up: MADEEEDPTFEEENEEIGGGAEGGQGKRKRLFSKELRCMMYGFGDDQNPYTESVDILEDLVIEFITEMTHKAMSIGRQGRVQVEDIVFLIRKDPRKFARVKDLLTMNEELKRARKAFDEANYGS
UniProt Q15573: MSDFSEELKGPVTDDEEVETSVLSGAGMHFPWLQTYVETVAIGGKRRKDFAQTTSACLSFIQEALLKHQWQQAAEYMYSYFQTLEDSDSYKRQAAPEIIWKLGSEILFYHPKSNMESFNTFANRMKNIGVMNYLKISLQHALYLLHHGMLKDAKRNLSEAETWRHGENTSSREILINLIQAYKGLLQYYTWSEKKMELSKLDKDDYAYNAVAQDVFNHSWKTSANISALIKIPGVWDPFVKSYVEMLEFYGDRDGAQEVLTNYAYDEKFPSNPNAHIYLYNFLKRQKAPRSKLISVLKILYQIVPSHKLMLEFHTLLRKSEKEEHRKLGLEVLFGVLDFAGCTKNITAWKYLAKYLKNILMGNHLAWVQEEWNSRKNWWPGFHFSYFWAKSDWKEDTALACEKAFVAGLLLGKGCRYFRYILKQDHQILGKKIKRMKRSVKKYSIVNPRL

What was measured:
Assay in all cases: log2 fold change, soluble protein after heating vs DMSO (PISA); higher = thermal stabilisation; K562 lysate, 10 uM; active = over 0.2 and 3.5 SD of the protein, either way, in both replicates (recomputed)
[1] = compound: C1=CC=C(C=C1)[C@H](COC2=CC3=C(C=C2)NC(=O)N3)NC(=O)C4=CC=CN(C4=O)CC5=CC(=C(C=C5)F)F
How it was run: (§1)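 To prepare the extract, K562 pellets were dounce-homogenised in PBS pH 7.4 with 1 mM MgCl2, giving crude material at 1 mg/mL protein. This was treated with 10 μM compound for 30 min, then heated in aliquots for 3 min over 48°C-58°C before pooling and addition of NP-40 to 0.5% at 4°C. Centrifugation at 21,000xg for 90 min left soluble protein in the supernatant, which TMTpro 16plex LC-MS/MS quantified with equalised channel sums. Results are log-two fold changes in thermal stability compared with solvent controls, from duplicates.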

[2] = compound: CC1=C(SC2=C1C(=N[C@H](C3=NN=C(N32)C)CC(=O)N)C4=CC=C(C=C4)Cl)C
How it was run: as §1

[3] = compound: CC1=C2C(=CC=C1)N=C(N(C2=O)C3=CC=CC=C3C)CN4C=NC5=C(N=CN=C54)N
How it was run: as §1

[4] = compound: Cc1sc2c(c1C)C(c1ccc(Cl)cc1)=N[C@@H](CC(=O)OC(C)(C)C)c1nnc(C)n1-2
How it was run: as §1

[5] = compound: c1ccc([C@@H]2C[C@H]2NC2CCNCC2)cc1
How it was run: as §1

Measured: log2 fold change

STK4 (UniProt Q13043)
inactive: [1] -0.031 | [2] -0.098 | [3] -0.05 | [4] -0.029 | [5] -0.124

TAF6 isoform 3 (UniProt P49848)
inactive: [1] 0.048 | [2] 0.095 | [3] 0.042 | [4] 0.063 | [5] 0.02

SUMO3 isoform 2 (UniProt P55854)
inactive: [1] 0.016 | [2] -0.016 | [3] 0.003 | [4] -0.028 | [5] -0.026

SUPT5H (UniProt O00267)
inactive: [1] 0 | [2] 0.021 | [3] 0.003 | [4] -0.013 | [5] 0.039

STRIP1 (UniProt Q5VSL9)
inactive: [1] 0.006 | [2] 0.029 | [3] -0.021 | [4] 0.029 | [5] 0.03

SYPL1 (UniProt Q16563)
inactive: [1] -0.075 | [2] 0.003 | [3] -0.01 | [4] -0.041 | [5] -0.123

STIP1 isoform 2 (UniProt P31948)
inactive: [1] 0.016 | [2] -0.015 | [3] -0.028 | [4] 0.025 | [5] 0.039

SYMPK (UniProt Q92797)
inactive: [1] -0.033 | [2] 0.015 | [3] 0.005 | [4] -0.012 | [5] 0.038

STIM1 (UniProt Q13586)
inactive: [1] -0.048 | [2] -0.008 | [3] 0.049 | [4] 0.028 | [5] 0.048

TADA1 (UniProt Q96BN2)
inactive: [1] -0.054 | [2] 0.011 | [3] 0 | [4] 0 | [5] 0.063

STX4 (UniProt Q12846)
inactive: [1] 0.024 | [2] -0.022 | [3] 0.061 | [4] -0.055 | [5] 0.066

STRADA (UniProt Q7RTN6)
inactive: [1] 0.049 | [2] -0.014 | [3] 0.019 | [4] -0.062 | [5] 0.006

SURF1 (UniProt Q15526)
inactive: [1] -0.036 | [2] 0.043 | [3] 0.026 | [4] -0.071 | [5] -0.01

SUZ12 (UniProt Q15022)
inactive: [1] -0.011 | [2] 0.042 | [3] -0.008 | [4] -0.047 | [5] -0.039

TAF12 (UniProt Q16514)
inactive: [1] 0 | [2] -0.017 | [3] -0.023 | [4] -0.041 | [5] -0.043

TAB1 (UniProt Q15750)
inactive: [1] -0.007 | [2] 0.045 | [3] -0.023 | [4] -0.001 | [5] 0.028

SYNRG (UniProt Q9UMZ2)
inactive: [1] -0.033 | [2] 0.05 | [3] 0 | [4] 0.005 | [5] 0.032

Taken from the results shown (two entries):
SUZ12 (UniProt Q15022)
inactive: [1] -0.011 | [2] 0.042 | [3] -0.008 | [4] -0.047 | [5] -0.039

TAF12 (UniProt Q16514)
inactive: [1] 0 | [2] -0.017 | [3] -0.023 | [4] -0.041 | [5] -0.043

The list continues.

SUGP2 (UniProt Q8IX01)
inactive: [1] -0.224 | [2] 0.022 | [3] 0.156 | [4] 0.011 | [5] 0.143

STXBP4 (UniProt Q6ZWJ1)
inactive: [1] -0.036 | [2] 0.013 | [3] 0.04 | [4] 0.06 | [5] 0.047

SUMF1 (UniProt Q8NBK3)
inactive: [1] -0.034 | [2] 0.004 | [3] 0.015 | [4] -0.044 | [5] -0.026

STRAP isoform 2 (UniProt Q9Y3F4)
inactive: [1] -0.001 | [2] 0.049 | [3] -0.029 | [4] 0.03 | [5] 0.032

TAF5 (UniProt Q15542)
inactive: [1] 0.044 | [2] 0.118 | [3] -0.04 | [4] 0.073 | [5] 0.06

STK38 (UniProt Q15208)
inactive: [1] -0.089 | [2] -0.02 | [3] -0.014 | [4] -0.012 | [5] -0.066

STX6 (UniProt O43752)
inactive: [1] 0.004 | [2] -0.018 | [3] 0.026 | [4] -0.009 | [5] -0.024

SUGCT isoform 3 (UniProt Q9HAC7)
inactive: [4] -0.338

TAF13 (UniProt Q15543)
inactive: [3] 0.177 | [5] 0.122

TAF1A (UniProt Q15573)
inactive: [3] -0.015

SYTL2 isoform 8 (UniProt Q9HCH5)
inactive: [1] 0.112 | [2] 0.019 | [4] -0.13
